Laboratory results from the supplement of paper PMC10849652.
The other results are listed elsewhere or left out.

The chains behind the UniProt entries cited, without tags or fusion partners. Where a name states a change or a piece, a line headed by the entry shows the natural chain unless it says otherwise.
UniProt Q13296: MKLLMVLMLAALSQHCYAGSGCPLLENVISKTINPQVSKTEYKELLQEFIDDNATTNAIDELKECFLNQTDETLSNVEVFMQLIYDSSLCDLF
UniProt Q6UWP8: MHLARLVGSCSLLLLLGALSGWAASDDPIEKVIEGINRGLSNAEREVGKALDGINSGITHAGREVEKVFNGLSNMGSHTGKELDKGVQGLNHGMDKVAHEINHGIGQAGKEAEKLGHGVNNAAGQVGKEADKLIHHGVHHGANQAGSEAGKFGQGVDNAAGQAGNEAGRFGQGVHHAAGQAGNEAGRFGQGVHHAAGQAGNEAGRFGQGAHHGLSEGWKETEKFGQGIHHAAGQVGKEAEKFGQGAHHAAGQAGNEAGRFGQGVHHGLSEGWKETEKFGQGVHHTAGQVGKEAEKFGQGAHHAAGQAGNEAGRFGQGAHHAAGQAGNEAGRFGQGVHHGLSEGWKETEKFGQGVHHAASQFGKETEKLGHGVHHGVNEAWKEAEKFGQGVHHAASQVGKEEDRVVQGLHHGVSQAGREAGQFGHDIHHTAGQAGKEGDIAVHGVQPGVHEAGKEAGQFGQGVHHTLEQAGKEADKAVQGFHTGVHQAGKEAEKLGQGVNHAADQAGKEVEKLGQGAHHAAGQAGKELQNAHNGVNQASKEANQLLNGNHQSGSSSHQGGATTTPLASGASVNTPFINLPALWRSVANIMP
UniProt Q9NPB0: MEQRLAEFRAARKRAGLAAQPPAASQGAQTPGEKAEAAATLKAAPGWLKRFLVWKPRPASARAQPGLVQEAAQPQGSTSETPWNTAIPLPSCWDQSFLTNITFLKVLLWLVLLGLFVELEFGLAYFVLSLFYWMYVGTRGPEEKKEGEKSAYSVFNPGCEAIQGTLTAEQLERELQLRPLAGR
UniProt Q96FQ6: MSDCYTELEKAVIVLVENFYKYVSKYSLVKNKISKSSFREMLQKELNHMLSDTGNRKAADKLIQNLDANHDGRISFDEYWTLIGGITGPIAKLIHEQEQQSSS
UniProt Q9Y3A4: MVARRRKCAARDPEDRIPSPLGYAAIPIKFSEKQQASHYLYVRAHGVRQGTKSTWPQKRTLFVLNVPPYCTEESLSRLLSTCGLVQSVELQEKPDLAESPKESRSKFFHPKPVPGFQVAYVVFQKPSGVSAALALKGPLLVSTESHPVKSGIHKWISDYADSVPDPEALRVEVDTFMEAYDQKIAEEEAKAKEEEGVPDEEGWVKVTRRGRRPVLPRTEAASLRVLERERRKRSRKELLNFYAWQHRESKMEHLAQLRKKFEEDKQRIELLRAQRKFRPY
UniProt A6ZKI3: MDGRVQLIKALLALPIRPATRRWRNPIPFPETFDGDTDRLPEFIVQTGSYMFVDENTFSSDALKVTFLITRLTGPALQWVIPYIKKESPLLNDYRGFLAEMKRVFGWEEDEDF
UniProt Q8IZE3: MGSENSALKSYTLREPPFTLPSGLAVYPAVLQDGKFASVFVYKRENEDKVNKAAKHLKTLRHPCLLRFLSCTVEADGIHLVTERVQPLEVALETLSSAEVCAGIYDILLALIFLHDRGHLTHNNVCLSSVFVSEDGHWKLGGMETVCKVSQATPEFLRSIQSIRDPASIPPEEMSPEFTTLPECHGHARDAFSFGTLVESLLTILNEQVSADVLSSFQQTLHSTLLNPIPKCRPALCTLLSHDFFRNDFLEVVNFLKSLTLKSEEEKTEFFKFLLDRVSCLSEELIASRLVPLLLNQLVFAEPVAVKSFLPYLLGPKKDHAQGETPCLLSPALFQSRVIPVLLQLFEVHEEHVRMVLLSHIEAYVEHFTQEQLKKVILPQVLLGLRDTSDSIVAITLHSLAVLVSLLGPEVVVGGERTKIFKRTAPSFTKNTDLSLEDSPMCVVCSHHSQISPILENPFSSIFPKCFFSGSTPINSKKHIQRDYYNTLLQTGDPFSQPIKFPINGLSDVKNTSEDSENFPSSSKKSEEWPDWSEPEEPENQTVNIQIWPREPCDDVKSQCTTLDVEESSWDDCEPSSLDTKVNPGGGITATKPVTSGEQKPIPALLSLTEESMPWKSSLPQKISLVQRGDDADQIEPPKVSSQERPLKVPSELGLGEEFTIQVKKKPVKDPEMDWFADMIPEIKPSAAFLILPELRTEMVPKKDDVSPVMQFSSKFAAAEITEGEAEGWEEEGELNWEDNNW
UniProt P26447: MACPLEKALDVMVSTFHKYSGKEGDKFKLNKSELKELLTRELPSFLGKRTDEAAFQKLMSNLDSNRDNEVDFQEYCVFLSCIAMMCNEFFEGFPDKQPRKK
UniProt Q9HCY8: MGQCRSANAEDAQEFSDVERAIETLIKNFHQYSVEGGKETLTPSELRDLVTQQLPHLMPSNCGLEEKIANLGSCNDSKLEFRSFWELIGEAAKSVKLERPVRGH
UniProt Q96BU1: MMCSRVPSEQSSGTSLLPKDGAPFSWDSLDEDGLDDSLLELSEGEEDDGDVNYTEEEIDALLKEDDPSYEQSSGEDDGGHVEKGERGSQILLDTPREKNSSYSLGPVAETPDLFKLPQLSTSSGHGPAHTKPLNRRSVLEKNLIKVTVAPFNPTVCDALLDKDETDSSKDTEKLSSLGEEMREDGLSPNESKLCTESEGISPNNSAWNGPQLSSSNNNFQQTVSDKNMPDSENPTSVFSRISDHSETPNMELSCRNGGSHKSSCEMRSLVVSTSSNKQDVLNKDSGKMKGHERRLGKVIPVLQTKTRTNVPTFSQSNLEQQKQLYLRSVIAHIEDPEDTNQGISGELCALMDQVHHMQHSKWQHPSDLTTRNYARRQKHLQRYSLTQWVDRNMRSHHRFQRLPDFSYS
UniProt P60903, whole entry, looked up: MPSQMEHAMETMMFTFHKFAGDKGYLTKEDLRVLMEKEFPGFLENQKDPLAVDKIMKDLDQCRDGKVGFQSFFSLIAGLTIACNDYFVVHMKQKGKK
UniProt Q86WG5: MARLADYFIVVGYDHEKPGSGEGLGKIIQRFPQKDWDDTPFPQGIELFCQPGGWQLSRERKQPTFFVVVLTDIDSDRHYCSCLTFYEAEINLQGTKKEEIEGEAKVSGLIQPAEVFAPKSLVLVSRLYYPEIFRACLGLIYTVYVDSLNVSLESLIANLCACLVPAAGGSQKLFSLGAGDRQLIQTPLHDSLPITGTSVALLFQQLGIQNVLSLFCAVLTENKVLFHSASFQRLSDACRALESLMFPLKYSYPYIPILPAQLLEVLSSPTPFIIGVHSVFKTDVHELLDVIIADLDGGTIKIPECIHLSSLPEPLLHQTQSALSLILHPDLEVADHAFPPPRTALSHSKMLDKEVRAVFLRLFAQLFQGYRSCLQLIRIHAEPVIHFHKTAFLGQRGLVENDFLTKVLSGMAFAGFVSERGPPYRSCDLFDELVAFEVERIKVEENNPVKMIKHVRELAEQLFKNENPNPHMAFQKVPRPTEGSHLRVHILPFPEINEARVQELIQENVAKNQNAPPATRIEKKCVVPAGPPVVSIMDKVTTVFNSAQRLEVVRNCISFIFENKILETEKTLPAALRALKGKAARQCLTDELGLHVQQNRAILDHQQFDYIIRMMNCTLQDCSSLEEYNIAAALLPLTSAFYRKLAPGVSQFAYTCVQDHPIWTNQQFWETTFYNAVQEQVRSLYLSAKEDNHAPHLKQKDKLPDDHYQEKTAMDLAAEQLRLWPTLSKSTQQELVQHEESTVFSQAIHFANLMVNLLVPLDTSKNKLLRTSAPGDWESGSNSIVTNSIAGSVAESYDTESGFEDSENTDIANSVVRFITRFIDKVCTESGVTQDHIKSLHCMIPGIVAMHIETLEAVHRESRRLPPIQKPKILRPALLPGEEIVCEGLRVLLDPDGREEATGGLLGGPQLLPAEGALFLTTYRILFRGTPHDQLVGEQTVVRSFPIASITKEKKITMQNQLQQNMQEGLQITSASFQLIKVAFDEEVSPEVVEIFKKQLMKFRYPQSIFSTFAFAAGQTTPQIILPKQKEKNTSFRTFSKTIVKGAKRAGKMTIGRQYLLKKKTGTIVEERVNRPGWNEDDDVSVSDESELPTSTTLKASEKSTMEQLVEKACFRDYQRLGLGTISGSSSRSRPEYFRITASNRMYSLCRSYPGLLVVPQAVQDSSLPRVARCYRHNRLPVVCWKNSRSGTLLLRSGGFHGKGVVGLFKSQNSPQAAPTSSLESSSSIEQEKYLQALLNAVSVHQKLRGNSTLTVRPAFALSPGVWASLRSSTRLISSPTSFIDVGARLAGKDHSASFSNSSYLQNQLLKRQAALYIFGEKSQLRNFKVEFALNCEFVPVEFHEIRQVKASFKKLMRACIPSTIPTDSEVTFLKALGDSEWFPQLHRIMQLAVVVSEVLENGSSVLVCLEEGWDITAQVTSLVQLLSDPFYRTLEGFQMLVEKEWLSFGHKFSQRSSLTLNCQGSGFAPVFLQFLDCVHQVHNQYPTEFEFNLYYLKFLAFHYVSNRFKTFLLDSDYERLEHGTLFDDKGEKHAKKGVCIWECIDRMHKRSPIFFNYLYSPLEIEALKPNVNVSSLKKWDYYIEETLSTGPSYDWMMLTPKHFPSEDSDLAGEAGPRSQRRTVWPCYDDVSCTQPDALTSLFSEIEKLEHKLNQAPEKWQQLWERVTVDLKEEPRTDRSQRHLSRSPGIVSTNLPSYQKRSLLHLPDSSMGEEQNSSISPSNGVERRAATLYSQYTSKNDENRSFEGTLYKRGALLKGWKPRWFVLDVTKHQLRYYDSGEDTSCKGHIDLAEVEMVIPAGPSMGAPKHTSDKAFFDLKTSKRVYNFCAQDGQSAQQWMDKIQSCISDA
UniProt Q9UPU9: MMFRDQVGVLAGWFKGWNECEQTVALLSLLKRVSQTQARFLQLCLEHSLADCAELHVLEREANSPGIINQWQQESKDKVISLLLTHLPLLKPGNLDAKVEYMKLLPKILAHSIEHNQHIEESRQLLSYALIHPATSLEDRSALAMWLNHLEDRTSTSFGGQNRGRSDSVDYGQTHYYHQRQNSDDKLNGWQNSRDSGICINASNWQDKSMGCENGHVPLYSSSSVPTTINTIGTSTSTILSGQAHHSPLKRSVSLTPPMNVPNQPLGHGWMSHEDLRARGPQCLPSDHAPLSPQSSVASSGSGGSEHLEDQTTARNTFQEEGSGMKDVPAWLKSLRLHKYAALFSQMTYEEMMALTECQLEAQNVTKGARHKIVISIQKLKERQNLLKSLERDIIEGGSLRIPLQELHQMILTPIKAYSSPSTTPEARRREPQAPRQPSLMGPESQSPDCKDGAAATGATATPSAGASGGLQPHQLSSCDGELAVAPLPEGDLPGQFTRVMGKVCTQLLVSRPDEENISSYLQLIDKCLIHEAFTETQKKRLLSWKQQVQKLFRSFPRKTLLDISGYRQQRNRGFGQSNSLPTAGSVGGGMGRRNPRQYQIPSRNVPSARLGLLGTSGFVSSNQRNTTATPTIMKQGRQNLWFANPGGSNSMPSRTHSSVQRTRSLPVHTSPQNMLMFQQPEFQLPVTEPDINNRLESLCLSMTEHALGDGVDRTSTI
UniProt Q7L3V2: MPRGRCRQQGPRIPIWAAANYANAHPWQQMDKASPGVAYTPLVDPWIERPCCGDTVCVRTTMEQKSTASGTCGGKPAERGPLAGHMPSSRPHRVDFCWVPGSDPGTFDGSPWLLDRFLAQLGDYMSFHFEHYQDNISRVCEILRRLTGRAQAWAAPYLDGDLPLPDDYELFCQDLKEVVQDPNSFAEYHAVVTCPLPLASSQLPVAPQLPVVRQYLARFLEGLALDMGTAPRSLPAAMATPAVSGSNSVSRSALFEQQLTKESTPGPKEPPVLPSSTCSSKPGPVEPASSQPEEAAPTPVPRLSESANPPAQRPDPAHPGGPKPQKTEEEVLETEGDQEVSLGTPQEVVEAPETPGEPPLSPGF
UniProt Q8N9R8: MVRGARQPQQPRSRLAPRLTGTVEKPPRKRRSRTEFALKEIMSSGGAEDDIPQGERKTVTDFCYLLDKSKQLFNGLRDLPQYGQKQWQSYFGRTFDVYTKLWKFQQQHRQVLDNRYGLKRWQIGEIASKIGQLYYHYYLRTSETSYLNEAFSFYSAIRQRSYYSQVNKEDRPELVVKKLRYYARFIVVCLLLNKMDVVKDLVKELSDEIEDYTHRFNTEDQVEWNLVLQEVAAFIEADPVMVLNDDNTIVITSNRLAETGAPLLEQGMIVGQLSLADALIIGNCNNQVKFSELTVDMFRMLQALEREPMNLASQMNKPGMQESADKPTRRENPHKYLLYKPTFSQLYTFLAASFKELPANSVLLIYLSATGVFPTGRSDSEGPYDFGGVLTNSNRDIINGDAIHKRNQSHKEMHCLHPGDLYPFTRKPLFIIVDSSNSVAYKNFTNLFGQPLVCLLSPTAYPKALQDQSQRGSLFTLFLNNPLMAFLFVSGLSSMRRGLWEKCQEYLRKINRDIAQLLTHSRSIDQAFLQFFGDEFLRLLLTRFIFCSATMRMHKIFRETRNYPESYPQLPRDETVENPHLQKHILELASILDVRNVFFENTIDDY

The targets below were run with CNCc1ccc(-c2[nH]c3cc(F)cc4c3c2CCNC4=O)cc1 [rucaparib] (assay: log2 fold change, soluble protein after heating vs DMSO (PISA); higher = thermal stabilisation; K562 cells, 10 uM, 30 min; active = over 0.2 and 3.5 SD of the protein, either way, in both replicates (recomputed)).
Outline: (§1)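 K562 cells at 2×10^6 cells/mL were given 10 μM compound for 30 min. Aliquots then went through 3 min of heating across 48°C-58°C, were pooled, and were extracted in PBS with 0.5% NP-40 at 4°C, and the supernatant after 21,000xg for 90 min was quantified by TMTpro 16plex LC-MS/MS with channel sums equalised. Thermal stability relative to control samples, from duplicates, is given as log2 fold change.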
With SCGB2A2 (UniProt Q13296) the log2 fold change was inactive: -0.09.
In the case of SCAMP3 isoform 2 (UniProt O14828), the log2 fold change was inactive: 0.046.
With SBSN (UniProt Q6UWP8) the log2 fold change was inactive: -0.451.
SAYSD1 (UniProt Q9NPB0) was tested, and the log2 fold change was inactive: -0.093.
For S100A16 (UniProt Q96FQ6), the log2 fold change was inactive: -0.071.
For RRP7A (UniProt Q9Y3A4), the log2 fold change was inactive: 0.097.
RTL8C (UniProt A6ZKI3) was tested, and the log2 fold change was inactive: -0.101.
SCYL3 isoform 2 (UniProt Q8IZE3) was tested, and the log2 fold change was inactive: 0.06.
S100A4 (UniProt P26447) was tested, and the log2 fold change was inactive: 0.043.
With S100A14 (UniProt Q9HCY8) the log2 fold change was inactive: -0.061.
For S100PBP (UniProt Q96BU1), the log2 fold change was inactive: -0.124.
S100A10 (UniProt P60903) was tested, and the log2 fold change was inactive: -0.038.
In the case of RSL24D1 (UniProt Q9UHA3), the log2 fold change was inactive: 0.398.

These targets were tested with CNc1nc(-c2ccc3c(N)n[nH]c3c2)cc(N2C[C@@H](C(=O)NC3CCCCC3)CC[C@H]2C)n1 in the same assay as above.
Outline: as §1
With SBF2 (UniProt Q86WG5) the log2 fold change was inactive: 0.077.
With S100A16 (UniProt Q96FQ6) the log2 fold change was inactive: 0.087.
For SAMD4A (UniProt Q9UPU9), the log2 fold change was inactive: -0.277.
For RTL8C (UniProt A6ZKI3), the log2 fold change was inactive: -0.106.
In the case of SCYL3 isoform 2 (UniProt Q8IZE3), the log2 fold change was inactive: -0.009.
SDHB, A0A087WXX8 was tested, and the log2 fold change was inactive: -0.147.
For RTL10 (UniProt Q7L3V2), the log2 fold change was inactive: -0.398.
For SCAI isoform 2 (UniProt Q8N9R8), the log2 fold change was inactive: -0.072.
In the case of S100A14 (UniProt Q9HCY8), the log2 fold change was inactive: 0.075.
For SCN4A (UniProt P35499), the log2 fold change was inactive: 0.061.

These targets were tested with COC(=O)N[C@@H](C)CNc1nccc(-c2cn(C(C)C)nc2-c2cc(Cl)cc(NS(C)(=O)=O)c2F)n1 [encorafenib] in the same assay as above.
Outline: as §1
In the case of SCGB2A2 (UniProt Q13296), the log2 fold change was inactive: 0.05.
With SCAMP3 isoform 2 (UniProt O14828) the log2 fold change was inactive: -0.136.
For SBSN (UniProt Q6UWP8), the log2 fold change was inactive: -0.488.
With SAYSD1 (UniProt Q9NPB0) the log2 fold change was inactive: -0.157.
With S100A16 (UniProt Q96FQ6) the log2 fold change was inactive: -0.299.
In the case of RRP7A (UniProt Q9Y3A4), the log2 fold change was inactive: 0.067.
With RTL8C (UniProt A6ZKI3) the log2 fold change was inactive: 0.045.
For SCYL3 isoform 2 (UniProt Q8IZE3), the log2 fold change was inactive: 0.021.
In the case of S100A4 (UniProt P26447), the log2 fold change was inactive: 0.075.
S100A14 (UniProt Q9HCY8) was tested, and the log2 fold change was inactive: -0.166.
With S100PBP (UniProt Q96BU1) the log2 fold change was inactive: -0.06.
With S100A10 (UniProt P60903) the log2 fold change was inactive: -0.293.
RSL24D1 (UniProt Q9UHA3) was tested, and the log2 fold change was inactive: 0.093.
